This is an account of results in publication PMC6954211.

Protein sequences, listed by entry. Tags and fused reporters are not part of them. Residues count along the entry.
UniProt Q9M364, residues 875-993: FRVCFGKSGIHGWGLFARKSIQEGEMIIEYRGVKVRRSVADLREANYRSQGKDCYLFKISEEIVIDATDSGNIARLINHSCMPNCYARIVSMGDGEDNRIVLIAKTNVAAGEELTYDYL

Residue numbers refer to the chain shown, from its start. These are yes or no findings as the source states them, for the method shown. Some entries that bind do so weakly or less than the wild type. Tags and fused reporters may be left off the sequences shown.

The target in assay [1] is T1, GST-PHD (PHD finger of Arabidopsis SIZ1 fused to GST) (Arabidopsis) (UniProt Q680Q4).
T1 sequence: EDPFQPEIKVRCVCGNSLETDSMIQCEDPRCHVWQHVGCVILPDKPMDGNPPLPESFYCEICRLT
Briefly: pull-down; 1 µg GST-PHD or GST-PHD(C162S) and 1 µg MBP-ATXSET incubated overnight in 300 µL peptide-binding buffer (50 mM Tris-HCl pH 7.5, 150 mM NaCl, 0.1% NP-40); pulled down with glutathione Sepharose beads; blot with anti-MBP; both purified.

Assay [2] addresses T2, GST-PHD(C162S) (Arabidopsis) (UniProt Q680Q4).
T2 sequence: T1 sequence with C59S
Described as above.

On to “MBP-ATX3SET (SET domain of ATX3 fused with maltose-binding protein) (from UniProt Q9M364 875-993) (domain or fragment)”, for which the binding result in assay [1] and in assay [2] was “binds” in each case.
